According to paper PMC8274441:
These are yes or no findings as the source states them, for the method shown. Some entries that bind do so weakly or less than the wild type.

By UniProt entry, the sequences of proteins in these tests, tags left out. Where a name states a change or a piece, a line headed by the entry shows the natural chain unless it says otherwise. Chains listed by the source or under a name are the forms on record and can include a tag or linker. Residues count along the entry.
UniProt P0A4G2, residues 20-309: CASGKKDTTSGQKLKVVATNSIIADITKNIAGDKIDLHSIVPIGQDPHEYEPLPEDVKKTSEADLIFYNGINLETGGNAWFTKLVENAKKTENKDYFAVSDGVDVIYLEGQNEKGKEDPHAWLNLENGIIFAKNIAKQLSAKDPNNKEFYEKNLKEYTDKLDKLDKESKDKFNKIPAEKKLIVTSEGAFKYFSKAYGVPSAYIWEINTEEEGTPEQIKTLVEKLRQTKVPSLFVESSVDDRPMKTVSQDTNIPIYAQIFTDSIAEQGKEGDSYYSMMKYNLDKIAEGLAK
UniProt P07355: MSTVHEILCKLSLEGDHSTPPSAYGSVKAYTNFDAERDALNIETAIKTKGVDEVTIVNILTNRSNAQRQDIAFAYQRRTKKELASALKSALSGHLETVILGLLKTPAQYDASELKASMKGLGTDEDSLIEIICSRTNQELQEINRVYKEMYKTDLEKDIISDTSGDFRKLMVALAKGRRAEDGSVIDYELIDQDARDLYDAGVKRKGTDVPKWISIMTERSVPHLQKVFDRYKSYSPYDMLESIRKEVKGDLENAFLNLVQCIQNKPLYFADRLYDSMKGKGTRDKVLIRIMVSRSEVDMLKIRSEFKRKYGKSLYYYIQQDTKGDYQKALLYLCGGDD
ANXA2 expressed in and secreted from HEK293 T/17 cells, 6x histidine tagged (P07355-2, form named): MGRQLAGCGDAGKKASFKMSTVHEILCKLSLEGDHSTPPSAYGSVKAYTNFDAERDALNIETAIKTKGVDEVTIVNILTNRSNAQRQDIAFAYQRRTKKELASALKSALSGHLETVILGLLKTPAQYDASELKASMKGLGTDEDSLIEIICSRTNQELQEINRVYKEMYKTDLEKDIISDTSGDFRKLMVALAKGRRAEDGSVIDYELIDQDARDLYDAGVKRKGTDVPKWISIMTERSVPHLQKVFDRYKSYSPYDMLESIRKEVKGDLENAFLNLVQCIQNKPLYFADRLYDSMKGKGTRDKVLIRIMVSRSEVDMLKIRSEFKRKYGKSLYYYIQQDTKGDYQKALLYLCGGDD
UniProt P02769, residues 25-607: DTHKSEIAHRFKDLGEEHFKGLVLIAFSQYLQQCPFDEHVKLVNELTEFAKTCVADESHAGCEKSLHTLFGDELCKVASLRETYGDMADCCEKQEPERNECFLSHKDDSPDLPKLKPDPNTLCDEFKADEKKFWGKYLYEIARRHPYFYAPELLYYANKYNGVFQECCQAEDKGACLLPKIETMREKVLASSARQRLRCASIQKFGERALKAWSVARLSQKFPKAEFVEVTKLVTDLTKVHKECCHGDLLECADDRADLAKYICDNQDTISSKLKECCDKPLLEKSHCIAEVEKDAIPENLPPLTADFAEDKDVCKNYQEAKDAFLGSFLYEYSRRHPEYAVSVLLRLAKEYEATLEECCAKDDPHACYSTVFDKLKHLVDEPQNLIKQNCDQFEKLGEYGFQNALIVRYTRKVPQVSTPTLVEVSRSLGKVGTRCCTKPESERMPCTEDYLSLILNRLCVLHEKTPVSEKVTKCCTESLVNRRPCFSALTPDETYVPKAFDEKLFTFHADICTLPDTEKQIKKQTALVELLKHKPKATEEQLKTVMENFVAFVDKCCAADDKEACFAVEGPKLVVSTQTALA

Columns and labels:
[1] = target: recombinant pneumococcal surface adhesin A (PsaA), 6x histidine tagged (Streptococcus pneumoniae strain TIGR4) (UniProt P0A4G2); test: SEC; both purified
[2] = target: recombinant pneumococcal surface adhesin A (PsaA), 6x histidine tagged (Streptococcus pneumoniae strain TIGR4) (UniProt P0A4G2); test: pull-down; PsaA or BSA covalently attached to AminoLink Plus agarose beads (some PsaA-beads with 5 mM manganese sulfate), incubated with ~50 µg recombinant ANXA2 or BSA at 37°C for 1 hr, washed twice with PBS; Coomassie gel and anti-ANXA2 western blot; both purified
[3] = target: recombinant ANXA2 expressed in E. coli, 6x histidine tagged (human) (UniProt P07355); test: SEC; individual proteins in PBS with 2 mM DTT, incubated 1 hr at 25°C or 37°C; calibrated Superdex 200 10/300 GL at room temperature, 0.5 mL/min; both purified
[4] = target: recombinant pneumococcal surface adhesin A (PsaA), 6x histidine tagged (Streptococcus pneumoniae strain TIGR4) (UniProt P0A4G2); test: SEC; 1:1 mixture of PsaA and ANXA2, each 0.18 mg/ml, in PBS with 2 mM DTT, incubated 1 hr at 37°C; Superdex 200 10/300 GL at room temperature, 0.5 mL/min; both purified
[5] = target: ANXA2 expressed in and secreted from HEK293 T/17 cells, 6x histidine tagged (human) (UniProt P07355); test: SEC; individual proteins in PBS with 2 mM DTT, incubated 1 hr at 25°C or 37°C; calibrated Superdex 200 10/300 GL at room temperature, 0.5 mL/min; both purified
[6] = target: human annexin A2 (ANXA2) of Detroit 562 nasopharyngeal epithelial cells (human) (UniProt P07355); test: far-Western, overlay or dot blot; Detroit 562 whole cell lysate proteins separated by 12.5% SDS-PAGE or 2DE, transferred to PVDF, renatured by step-wise reduction of guanidine-HCl, probed with 100 µg biotinylated PsaA in PBST with 2% skim milk overnight at 4 C; streptavidin-HRP, ECL; spot identified by mass spectrometry; only the binder purified

Row | Substance | binding [2] | binding [4] | also measured
1 | recombinant pneumococcal surface adhesin A (PsaA), 6x histidine tagged (from UniProt P0A4G2 20-309) | – | – | binding [1]: no binding
2 | recombinant ANXA2 expressed in E. coli, 6x histidine tagged (from UniProt P07355-2 1-357) | binds | binds | binding [3]: no binding
3 | ANXA2 expressed in and secreted from HEK293 T/17 cells, 6x histidine tagged (from UniProt P07355-2 1-357) | – | binds | binding [5]: no binding
4 | biotinylated recombinant PsaA (from UniProt P0A4G2 20-309) | – | – | binding [6]: binds
5 | BSA (from UniProt P02769 25-607) | no binding (tested: ~50 µg) | – | –
